Measurements reported in publication PMC5476196, “Uptake, biotransformation and elimination of selected pharmaceuticals in a freshwater invertebrate measured using liquid chromatography tandem mass spectrometry” (Chemosphere, 2017).

Legend:
[1] = tested on: Gammarus pulex; experiment: in vivo; details: simultaneous parametrisation; exposure 1 μg L^−1 (warfarin, propranolol 10 μg L^−1)
Protocol: (§1) Individual adult organisms (n = 25), both male and female (>5 mg wet weight) were placed in Pyrex glass beakers. G. pulex were carefully transferred to beakers using blunt forceps to avoid any harm to the organisms before exposure. Each beaker contained 25 organisms in 200 mL of exposure media (AFW and test compound). […] All exposure media contained <0.001% of organic solvent (methanol). A total of 300 organisms were used per compound exposure and were sampled for n = 3 per time-point. […] These were subsequently analysed for background contamination. […] Each animal specimen was rinsed with ultra-pure water and then frozen at −20 °C.
(§2) Water samples collected from exposure experiments were filtered using Whatman filters (0.2 μM) and directly injected onto the LC-MS/MS for analysis. For G. pulex, A mass of 50 mg of lyophilised and ground material was extracted by glass bead pulverisation in 5 mL of acetonitrile and diluted with 100 mL of ammonium acetate buffer (10 mM) for loading onto Waters HLB solid phase extraction (SPE) cartridges (6 cc, 200 mg sorbent).
(§3) Briefly, separations were performed on an Agilent HP1100 LC system configured with a Waters SunFire reversed-phase C18 column (150 mm × 2.1 mm, 2.5 μM particle size). […] Detection was performed using a Waters Quattro triple quadrupole mass spectrometer with electrospray ionisation operated in positive and negative polarity switching mode. Quantification of analytes was performed using 3-point internal standard matrix-matched calibration using the peak area ratio of non-labelled analyte (precursor range: 50–300 ng g^−1, biotransformation product range: 50–150 ng g^−1) to the stable isotope labelled internal standard (SIL-IS) (100 ng g^−1).
(§4) Herein, the authors define BCFtotal as the summation of the BCF of both parent/precursor and biotransformation products (i.e. the total body burden). Whereas, BCFparent will be used to describe the BCF determined for the parent compound alone.

[2] = in vivo; details: both, Gammarus pulex, in vivo, G. pulex
Protocol: as §1, §2, §3, §4

[3] = across the exposure period
Protocol: as §1, §2

[4] = tested on: Gammarus pulex; experiment: Biotransformation products in G. pulex after exposure to propranolol, carbamazepine or diazepam (LC-MS/MS); details: after exposure to the precursor compound (propranolol 10 μg L^−1, diazepam 1 μg L^−1)
Protocol: as §1
as §3, with “g^−1). […]” for “g^−1).”

Row | SMILES | k1 (uptake rate constant), Simultaneous [1] | concentration at 48 h ([2]; pH 8.19, Concentration, 48h Mean, n=3, exposure 1 μg L^−1 (warfarin, propranolol 10 μg L^−1)) [ng/g] | concentration at 48 h ([2]; pH 8.19, internal concentration at the end of the uptake phase, 48 h, exposure 1 μg L^−1 (propranolol 10 μg L^−1)) [ng/g] | stability of aqueous pharmaceutical concentration [3] | mean concentration of biotransformation product at 48 h (end of the uptake phase) [4] [ng g^−1 dw]
1 | CN1C(=O)CN=C(c2ccccc2)c2cc(Cl)ccc21 [Diazepam, diazepam] | 9.5942 | 45 | ≤ 51 | remained stable | 
2 | O=C1Nc2ccc(Cl)cc2C(c2ccccc2)=NC1O (centres unmarked) [oxazepam] |  |  |  |  | 50 ± 23
